# Experimental data published in PubChem BioAssay AID2417 (National Center for Advancing Translational Sciences (NCATS), 2010).
# The campaign covered roughly 140,000 compounds. About 4,300 (3.1%) were called active. The inconclusive results got no clear call from the source; some entries with a clear call stand among them for comparison.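 The calls were made as follows: active = readout at or below -70, meaning at least 70% loss of cells showing the perinucleolar compartment, a nuclear body marking cancer cells; inconclusive = readout between -30 and a set limit; inactive = the rest.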
# Assay: High Content Assay for Compounds that inhibit the Assembly of the Perinucleolar Compartment;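 also: plate controls were DMSO wells for no effect and camptothecin positive control wells for full effect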
# Details: PC3M PTB-GFP, PNC prevalence imaging, 16 h; at 10 µM; hits give low values
# Method in brief: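 PC3M cells stably expressing PTB-GFP, 750–1000 cells/well, treated 16 h at 37 °C with compound (23 nl of library stock), in duplicate. After paraformaldehyde fixation and Hoechst stain, imaged at 20x; PNC prevalence scored by image analysis.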
row,Structure (SMILES),"activity change (PNC), negative = inhibition"
1,CCCSc1nc(C)c(-c2csc(C(C#N)=C3CCCC3)n2)cc1C#N,inconclusive: -47%
2,CCOC(=O)CN1C(=O)S/C(=C/C=C/c2ccc(N(C)C)cc2)C1=O,inactive: 31.4%
3,CC1(NC(=O)COc2ccccc2-c2ccccc2)CCS(=O)(=O)C1 (stereo not given),active: -95.8%
4,O=C(NC1CCCC1)c1ccc(CS(=O)(=O)c2ccc(Br)cc2)o1,inconclusive: -46.1%
5,CCOC(=O)C1=C(C)NC(=S)NC1c1ccc(-c2ccc(Cl)cc2)o1 (stereo not given),inactive: -29.5%
6,COc1c(F)c(F)c(C(=O)Nc2ccc(NC(=O)c3ccco3)cc2)c(F)c1F,inconclusive: -56.8%
7,COC(=O)CN1C(=O)C2(C(C#N)=C(N)Oc3ccccc32)C2=C1CC(C)(C)CC2=O (stereo not given),inactive: 43.8%
8,Cc1cccc(Cn2c(SCCO)nc3c2c(=O)n(C)c(=O)n3C)c1,inconclusive: -51.2%
9,Cn1cnnc1SCc1ccc(C#N)cc1Cl,inconclusive: -34.9%
10,Cc1ccc(NC(=O)C2CCN(C(=O)NC3CCCCC3)CC2)cc1Cl,inconclusive: -62.7%
11,Cc1[nH]c2ccccc2c1C(=O)COC(=O)C1CC(=O)N(Cc2ccco2)C1 (stereo not given),inconclusive: -30.1%
12,COc1ccc(OC)c(NC(=O)CSc2nnc(C3CCCCC3)n2-c2ccccc2)c1,inconclusive: -42.7%
13,Cc1cc(NC(=O)COC(=O)c2cccc(OCc3ccccc3)c2)no1,inconclusive: -57.8%
14,Cn1cc(SCC(=O)NCC2CCCO2)c2ccccc21 (stereo not given),inactive: -6.08%
15,O=C(CSC1=NCCS1)Nc1ccccc1F,inconclusive: -78%
16,N/C(=N\OC(=O)CCC1CCCC1)c1ccccn1,inconclusive: -38.1%
17,Cc1cccc(N2C(S)=C(C#N)C(=O)NC2c2cccs2)c1 (stereo not given),active: -84.1%
18,C=C(C)CN(CC)c1nc(N)c2c(N)nc3c(c2c1C#N)CC(=O)N3C12CC3CC(CC(C3)C1)C2,inactive: -0.294%
19,CN(CC(=O)Nc1ccncc1)S(=O)(=O)c1ccc(Cl)cc1,inactive: -20.9%
20,CCOC(=O)Cc1csc(NC(=O)CS(=O)(=O)Cc2ccccc2)n1,inconclusive: -54%
21,Cc1cc(C)c2c(CN3CCN(Cc4ccc5c(c4)OCO5)CC3)cc(=O)oc2c1C,inactive: -21.6%
22,Cc1c(C(=O)Nc2cccc([N+](=O)[O-])c2)csc1-c1ccccc1,inconclusive: -51.4%
23,CC(C)(C)c1ccc(C(=O)N2CCC(C(=O)NCC3CCCO3)CC2)cc1 (stereo not given),inconclusive: -46.8%
24,O=C(NNC(=S)NC1CCCCC1)c1sc2ccccc2c1Cl,inactive: 21.6%
25,CC(=O)NCCn1c(SCC(=O)NCCC2=CCCCC2)nc2ccccc2c1=O,inconclusive: -40.9%

# Entries from the list above containing an aryl methoxy group (2):
row,Structure (SMILES),"activity change (PNC), negative = inhibition"
6,COc1c(F)c(F)c(C(=O)Nc2ccc(NC(=O)c3ccco3)cc2)c(F)c1F,inconclusive: -56.8%
12,COc1ccc(OC)c(NC(=O)CSc2nnc(C3CCCCC3)n2-c2ccccc2)c1,inconclusive: -42.7%
